Part of at least one peptide drawing is inferred or uncertain, most often the ends.
Assays:
growth hormone = test: Arginine-stimulated plasma growth hormone in Nembutal-anesthetized rats (radioimmunoassay); type: in vivo, albino male rats; settings: *p < 0.01
Procedure: (§1) The in vivo activity of the compounds of this invention was established by subjecting des-(Ala^1, Gly2), Met^11 -Somatostatin, as a representative compound of the invention, to the following standard test procedure: Three groups of ten albino male rats were arranged to provide a control group, a group for observation of Somatostatin activity as the standard and a group for the study of the test compound des-(Ala^1, Gly^2), Met^11 -Somatostatin. Nembutal (50 mg/kg) was injected intraperitoneally into each rat. Fifteen minutes later a subcutaneous injection of the test compound, somatostatin and physiological saline (control) was administered separately to each of the three groups of rats. Ten minutes later 0.5 milliliters of arginine (300 mg/ml, pH 7.2) was injected into the rats heart. The rats were decapitated five minutes later and their blood was collected in Trasylol -EDTA. Aliquot samples were radioimmunoassayed for growth hormone and insulin.

somatotropin = settings: Brazeau et al., Science, 179 pp 77-79 (1973); cited from earlier work
insulin = test: Arginine-stimulated plasma insulin in Nembutal-anesthetized rats (radioimmunoassay); type: in vivo, albino male rats; settings: Experiment 3; dose 200 μg/kg subcutaneous; control 206 ± 19
Procedure: as §1

Question: Which results are given for `C[C@H](N)C(=O)NCC(=O)N[C@H]1CSSC[C@@H](C(=O)O)NC(=O)[C@H](CO)NC(=O)[C@H]([C@@H](C)O)NC(=O)[C@H](Cc2ccccc2)NC(=O)[C@H]([C@@H](C)O)NC(=O)[C@H](CCCCN)NC(=O)[C@H](Cc2c[nH]c3ccccc23)NC(=O)[C@H](Cc2ccccc2)NC(=O)[C@H](Cc2ccccc2)NC(=O)[C@H](CC(N)=O)NC(=O)[C@H](CCCCN)NC1=O` [SRIF, Somatostatin]?
Answer: GH (growth hormone; Experiment 2, dose 100 μg/kg subcutaneous, control 176 ± 29): 44 ± 7 ng/mL; GH (growth hormone; Experiment 3, dose 200 μg/kg subcutaneous, control 123 ± 16): 62 ± 14 ng/mL; inhibition of secretion of somatotropin (growth hormone) (somatotropin): inhibit the secretion of the hormone somatotropin; Insulin (insulin): 152 ± 25 μU/ml

— patent publication US4012345A, “Des-(Ala^1, Gly^2), Met^11 -SRIF and intermediates” (American Home Products Corporation, priority 1976, dated 1977)
